± gives the standard deviation of the averaged measurements. The effect of the compound repeats well; differences between the knockouts mostly do not.
Test system: MDA-MB-231
Assay: relative cell number vs DMSO control (72 h) (% of DMSO); higher = less growth inhibition (more cells)
Protocol: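 QMAP-Seq: a pool of 5 breast cancer cell lines (ZR-75-1, SKBR3, HCC-38, MDA-MB-231, BT-20), each carrying 12 doxycycline-inducible Cas9 sgRNA perturbations (11 knockouts plus non-targeting sgNT), was treated with compounds for 72 h at four 10-fold doses (10 nM-10 uM or 1 nM-1 uM range). Barcodes were amplified and sequenced, and cell number was interpolated from 293T spike-in standard curves. The result is expressed as % of the median of DMSO wells. Two biological replicates.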

Cn1c(CCCC(=O)O)nc2cc(N(CCCl)CCCl)ccc21 [Bendamustine]
Conditions | relative cell number
sgRNA knockout: sgATF3, 10 nM | 116 ± 5.7
sgRNA knockout: sgATF3, 100 nM | 117 ± 53
sgRNA knockout: sgATF3, 1000 nM | 111 ± 7.4
sgRNA knockout: sgATF3, 10000 nM | 139 ± 16
sgRNA knockout: sgATF4, 10 nM | 116 ± 5.8
sgRNA knockout: sgATF4, 100 nM | 167 ± 24
sgRNA knockout: sgATF4, 1000 nM | 137 ± 18
sgRNA knockout: sgATF4, 10000 nM | 206 ± 12
sgRNA knockout: sgATF6, 10 nM | 106 ± 26
sgRNA knockout: sgATF6, 100 nM | 110 ± 12
sgRNA knockout: sgATF6, 1000 nM | 100 ± 26
sgRNA knockout: sgATF6, 10000 nM | 141 ± 14
sgRNA knockout: sgATG7, 10 nM | 93.4 ± 2.2
sgRNA knockout: sgATG7, 100 nM | 117 ± 3.7
sgRNA knockout: sgATG7, 1000 nM | 125 ± 23
sgRNA knockout: sgATG7, 10000 nM | 140 ± 34
sgRNA knockout: sgERN1, 10 nM | 80.6 ± 20
sgRNA knockout: sgERN1, 100 nM | 112 ± 4.4
sgRNA knockout: sgERN1, 1000 nM | 111 ± 2.5
sgRNA knockout: sgERN1, 10000 nM | 132 ± 3.5
sgRNA knockout: sgHSF1, 10 nM | 107 ± 6.7
sgRNA knockout: sgHSF1, 100 nM | 95.1 ± 16
sgRNA knockout: sgHSF1, 1000 nM | 105 ± 20
sgRNA knockout: sgHSF1, 10000 nM | 134 ± 9.9
sgRNA knockout: sgHSF2, 10 nM | 124 ± 13
sgRNA knockout: sgHSF2, 100 nM | 103 ± 1.9
sgRNA knockout: sgHSF2, 1000 nM | 109 ± 19
sgRNA knockout: sgHSF2, 10000 nM | 124 ± 3.1
sgRNA knockout: sgKEAP1, 10 nM | 101 ± 25
sgRNA knockout: sgKEAP1, 100 nM | 107 ± 4.7
sgRNA knockout: sgKEAP1, 1000 nM | 98.8 ± 15
sgRNA knockout: sgKEAP1, 10000 nM | 126 ± 23
sgRNA knockout: sgNFE2L2, 10 nM | 119 ± 28
sgRNA knockout: sgNFE2L2, 100 nM | 105 ± 10
sgRNA knockout: sgNFE2L2, 1000 nM | 95.5 ± 7.1
sgRNA knockout: sgNFE2L2, 10000 nM | 134 ± 1.7
sgRNA knockout: sgSLC35F2, 10 nM | 121 ± 1.6
sgRNA knockout: sgSLC35F2, 100 nM | 110 ± 34
sgRNA knockout: sgSLC35F2, 1000 nM | 96.4 ± 21
sgRNA knockout: sgSLC35F2, 10000 nM | 113 ± 8.5
sgRNA knockout: sgXBP1, 10 nM | 99.5 ± 6.9
sgRNA knockout: sgXBP1, 100 nM | 113 ± 26
sgRNA knockout: sgXBP1, 1000 nM | 118 ± 22
sgRNA knockout: sgXBP1, 10000 nM | 123 ± 25

CC[C@]1(O)C[C@H]2CN(CCc3c([nH]c4ccccc34)[C@@](C(=O)OC)(c3cc4c(cc3OC)N(C=O)[C@H]3[C@@](O)(C(=O)OC)[C@H](OC(C)=O)[C@]5(CC)C=CCN6CC[C@]43[C@@H]65)C2)C1 [Vincristine]
Conditions | relative cell number
sgRNA knockout: sgATF3, 10 nM | 28.8 ± 8.7
sgRNA knockout: sgATF3, 100 nM | 19.3 ± 2.9
sgRNA knockout: sgATF3, 1000 nM | 16 ± 9.9
sgRNA knockout: sgATF3, 10000 nM | 17.1 ± 6.9
sgRNA knockout: sgATF4, 10 nM | 32.6 ± 4.9
sgRNA knockout: sgATF4, 100 nM | 14.1 ± 15
sgRNA knockout: sgATF4, 1000 nM | 13.2 ± 2.8
sgRNA knockout: sgATF4, 10000 nM | 14.5 ± 0.2
sgRNA knockout: sgATF6, 10 nM | 41.9 ± 16
sgRNA knockout: sgATF6, 100 nM | 17.9 ± 3.4
sgRNA knockout: sgATF6, 1000 nM | 17.7 ± 8.4
sgRNA knockout: sgATF6, 10000 nM | 11.5 ± 3.9
sgRNA knockout: sgATG7, 10 nM | 28.5 ± 1.1
sgRNA knockout: sgATG7, 100 nM | 22.6 ± 3.5
sgRNA knockout: sgATG7, 1000 nM | 16.6 ± 4.2
sgRNA knockout: sgATG7, 10000 nM | 14.3 ± 5.7
sgRNA knockout: sgERN1, 10 nM | 35.524 ± 0.024
sgRNA knockout: sgERN1, 100 nM | 17 ± 12
sgRNA knockout: sgERN1, 1000 nM | 17.5 ± 6.2
sgRNA knockout: sgERN1, 10000 nM | 19.1 ± 11
sgRNA knockout: sgHSF1, 10 nM | 28.9 ± 2.9
sgRNA knockout: sgHSF1, 100 nM | 20.9 ± 2.8
sgRNA knockout: sgHSF1, 1000 nM | 21.3 ± 6.7
sgRNA knockout: sgHSF1, 10000 nM | 15.8 ± 7.7
sgRNA knockout: sgHSF2, 10 nM | 33.7 ± 6.2
sgRNA knockout: sgHSF2, 100 nM | 17.1 ± 1.4
sgRNA knockout: sgHSF2, 1000 nM | 16.6 ± 0.88
sgRNA knockout: sgHSF2, 10000 nM | 17.3 ± 2.5
sgRNA knockout: sgKEAP1, 10 nM | 30.5 ± 5.7
sgRNA knockout: sgKEAP1, 100 nM | 16.2 ± 7.9
sgRNA knockout: sgKEAP1, 1000 nM | 9.05 ± 3.6
sgRNA knockout: sgKEAP1, 10000 nM | 15.4 ± 2.8
sgRNA knockout: sgNFE2L2, 10 nM | 30.2 ± 3
sgRNA knockout: sgNFE2L2, 100 nM | 19.74 ± 0.14
sgRNA knockout: sgNFE2L2, 1000 nM | 11.6 ± 8.3
sgRNA knockout: sgNFE2L2, 10000 nM | 13.2 ± 3.9
sgRNA knockout: sgSLC35F2, 10 nM | 30 ± 0.47
sgRNA knockout: sgSLC35F2, 100 nM | 16.1 ± 5.1
sgRNA knockout: sgSLC35F2, 1000 nM | 13.1 ± 0.4
sgRNA knockout: sgSLC35F2, 10000 nM | 15 ± 6.7
sgRNA knockout: sgXBP1, 10 nM | 37.5 ± 1.7
sgRNA knockout: sgXBP1, 100 nM | 24 ± 5.1
sgRNA knockout: sgXBP1, 1000 nM | 21.5 ± 4.7
sgRNA knockout: sgXBP1, 10000 nM | 19.6 ± 4

COc1cc([C@@H]2c3cc4c(cc3[C@@H](O[C@@H]3O[C@@H]5CO[C@@H](C)O[C@H]5[C@H](O)[C@H]3O)[C@H]3COC(=O)[C@H]23)OCO4)cc(OC)c1O [Etoposide]
Conditions | relative cell number
sgRNA knockout: sgATF3, 10 nM | 71.5 ± 43
sgRNA knockout: sgATF3, 100 nM | 73.9 ± 2.4
sgRNA knockout: sgATF3, 1000 nM | 32.6 ± 0.89
sgRNA knockout: sgATF3, 10000 nM | 12.1 ± 2.6
sgRNA knockout: sgATF4, 10 nM | 60.84 ± 0.21
sgRNA knockout: sgATF4, 100 nM | 85.1 ± 3.1
sgRNA knockout: sgATF4, 1000 nM | 32.5 ± 5.1
sgRNA knockout: sgATF4, 10000 nM | 19.7 ± 4.4
sgRNA knockout: sgATF6, 10 nM | 84.5 ± 22
sgRNA knockout: sgATF6, 100 nM | 77.7 ± 7.3
sgRNA knockout: sgATF6, 1000 nM | 20 ± 1.8
sgRNA knockout: sgATF6, 10000 nM | 9.93 ± 5.3
sgRNA knockout: sgATG7, 10 nM | 79.8 ± 6.8
sgRNA knockout: sgATG7, 100 nM | 69.5 ± 10
sgRNA knockout: sgATG7, 1000 nM | 30.9 ± 3.7
sgRNA knockout: sgATG7, 10000 nM | 10.5 ± 0.92
sgRNA knockout: sgERN1, 10 nM | 73 ± 30
sgRNA knockout: sgERN1, 100 nM | 70.51 ± 0.66
sgRNA knockout: sgERN1, 1000 nM | 18.9 ± 9.3
sgRNA knockout: sgERN1, 10000 nM | 8.61 ± 3.9
sgRNA knockout: sgHSF1, 10 nM | 58.8 ± 9.7
sgRNA knockout: sgHSF1, 100 nM | 60.8 ± 9.5
sgRNA knockout: sgHSF1, 1000 nM | 21 ± 3.6
sgRNA knockout: sgHSF1, 10000 nM | 12.5 ± 7.4
sgRNA knockout: sgHSF2, 10 nM | 78.4 ± 15
sgRNA knockout: sgHSF2, 100 nM | 61 ± 8.3
sgRNA knockout: sgHSF2, 1000 nM | 31 ± 2.4
sgRNA knockout: sgHSF2, 10000 nM | 9.69 ± 2.2
sgRNA knockout: sgKEAP1, 10 nM | 64 ± 7.4
sgRNA knockout: sgKEAP1, 100 nM | 74.1 ± 2.8
sgRNA knockout: sgKEAP1, 1000 nM | 21.4 ± 4.5
sgRNA knockout: sgKEAP1, 10000 nM | 10.5 ± 4.1
sgRNA knockout: sgNFE2L2, 10 nM | 43.7 ± 12
sgRNA knockout: sgNFE2L2, 100 nM | 54.6 ± 0.6
sgRNA knockout: sgNFE2L2, 1000 nM | 14.1 ± 3.4
sgRNA knockout: sgNFE2L2, 10000 nM | 7.83 ± 2.7
sgRNA knockout: sgSLC35F2, 10 nM | 69.2 ± 9.6
sgRNA knockout: sgSLC35F2, 100 nM | 78.6 ± 4.4
sgRNA knockout: sgSLC35F2, 1000 nM | 24.5 ± 2.2
sgRNA knockout: sgSLC35F2, 10000 nM | 12.1 ± 1.6
sgRNA knockout: sgXBP1, 10 nM | 46.6 ± 3
sgRNA knockout: sgXBP1, 100 nM | 72.5 ± 4
sgRNA knockout: sgXBP1, 1000 nM | 20.5 ± 0.8
sgRNA knockout: sgXBP1, 10000 nM | 11.3 ± 6.4
